“Also recorded” adds a separate entry of the source. At least one compound was matched to its structure with a doubt left.
Tested on: p21^Cip1 nuclear localization
Assay: p21^Cip1 localization by immunofluorescence in RafAR-induced E7-expressing cells
Assay type: cell-based, murine
Conditions: 1.0 μM R1881 30 hours, 100 μM LY294002

Question: Which “Raf-induced nuclear accumulation of p21^Cip1” value does the source give for `O=c1cc(N2CCOCC2)oc2c(-c3ccccc3)cccc12` [LY294002] here?
Answer: Its value is “restores p21^Cip1 nuclear localization; also recorded: restored Raf-induced nuclear accumulation of p21^Cip1”.

From patent publication US20060088472A1, “E7 regulation of p21 cip1 through akt” (priority 2002, published 2006)
